Binding data for 1 substance are collected here from publication PMC10065062.

By UniProt entry, the sequences of proteins in these tests, tags left out.
UniProt Q61221: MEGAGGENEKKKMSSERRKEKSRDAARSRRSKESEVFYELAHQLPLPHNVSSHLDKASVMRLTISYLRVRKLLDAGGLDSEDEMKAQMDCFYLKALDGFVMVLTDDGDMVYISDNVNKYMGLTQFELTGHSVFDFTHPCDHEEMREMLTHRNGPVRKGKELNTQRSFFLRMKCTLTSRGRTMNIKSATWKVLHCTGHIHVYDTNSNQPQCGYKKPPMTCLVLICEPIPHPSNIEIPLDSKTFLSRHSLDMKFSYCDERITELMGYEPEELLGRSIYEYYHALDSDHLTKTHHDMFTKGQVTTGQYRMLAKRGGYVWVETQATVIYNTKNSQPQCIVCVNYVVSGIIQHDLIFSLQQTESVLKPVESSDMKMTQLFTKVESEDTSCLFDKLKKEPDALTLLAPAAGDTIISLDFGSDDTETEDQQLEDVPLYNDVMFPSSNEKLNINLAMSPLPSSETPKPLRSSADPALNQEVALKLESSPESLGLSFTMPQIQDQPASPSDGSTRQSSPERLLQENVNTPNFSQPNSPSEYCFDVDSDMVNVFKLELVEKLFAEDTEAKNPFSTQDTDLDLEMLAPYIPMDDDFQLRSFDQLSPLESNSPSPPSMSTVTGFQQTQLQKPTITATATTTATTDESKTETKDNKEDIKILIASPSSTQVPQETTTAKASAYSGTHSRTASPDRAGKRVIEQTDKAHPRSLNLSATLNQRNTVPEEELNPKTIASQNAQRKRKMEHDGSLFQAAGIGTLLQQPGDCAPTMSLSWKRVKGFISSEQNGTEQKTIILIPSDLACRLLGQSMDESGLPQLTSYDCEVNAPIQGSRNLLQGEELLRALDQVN
UniProt P52480: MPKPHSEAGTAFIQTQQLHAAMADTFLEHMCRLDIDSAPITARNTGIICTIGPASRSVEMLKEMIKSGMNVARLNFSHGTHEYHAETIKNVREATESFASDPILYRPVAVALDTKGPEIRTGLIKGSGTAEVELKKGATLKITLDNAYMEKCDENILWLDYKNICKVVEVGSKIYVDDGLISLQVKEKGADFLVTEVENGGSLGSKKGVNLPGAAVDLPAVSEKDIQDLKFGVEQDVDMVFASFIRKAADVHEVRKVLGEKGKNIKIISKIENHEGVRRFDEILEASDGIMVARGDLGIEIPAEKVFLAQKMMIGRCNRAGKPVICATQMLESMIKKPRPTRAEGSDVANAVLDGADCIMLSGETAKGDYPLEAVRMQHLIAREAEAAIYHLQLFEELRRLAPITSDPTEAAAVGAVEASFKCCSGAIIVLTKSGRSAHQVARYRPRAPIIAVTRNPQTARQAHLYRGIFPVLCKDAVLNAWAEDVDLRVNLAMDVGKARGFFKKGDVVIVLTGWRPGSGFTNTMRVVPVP

No constants are given. Whether binding was seen depends on the method and setting. In cells and extracts the contact can be indirect. Some results given as binding are weak or reduced against the parent protein; the word gives no strength.

For this assay, the target named is HIF-1α (mouse (endogenous in BMDCs)) (UniProt Q61221). The assay is described as follows: co-IP; BMDCs stimulated with 2 μg/mL cGAMP for 4 hours in the presence or absence of TEPP-46 (100 μM); lysis buffer 50 mM Tris-HCl, 150 mM NaCl, 1 mM EDTA, 1% Triton X-100, 10% glycerol; supernatants immunoprecipitated with antibodies and protein G-agarose beads overnight.

Turning to “pyruvate kinase M2 (from UniProt P52480 1-531) (enzyme)”, the binding result was “binds”.
